Data published in US20030162221A1.
No constants are given. Whether binding was seen depends on the method and setting. Binding seen in cells or lysates may run through a third protein. Some results given as binding are weak or reduced against the parent protein; the word gives no strength. For some assays here: Sequences can lack the tags named with a protein.

By UniProt entry, the sequences of proteins in these tests, tags left out.
UniProt P48510: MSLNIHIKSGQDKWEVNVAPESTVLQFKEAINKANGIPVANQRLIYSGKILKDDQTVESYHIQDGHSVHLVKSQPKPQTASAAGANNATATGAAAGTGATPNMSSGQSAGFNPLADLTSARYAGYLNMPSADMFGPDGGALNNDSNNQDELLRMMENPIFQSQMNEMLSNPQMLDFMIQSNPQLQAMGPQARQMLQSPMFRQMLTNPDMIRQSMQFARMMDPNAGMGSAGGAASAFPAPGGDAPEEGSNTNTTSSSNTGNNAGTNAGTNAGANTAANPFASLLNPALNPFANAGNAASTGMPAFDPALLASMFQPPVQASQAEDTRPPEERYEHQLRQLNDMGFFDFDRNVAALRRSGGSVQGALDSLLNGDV
UniProt P13712: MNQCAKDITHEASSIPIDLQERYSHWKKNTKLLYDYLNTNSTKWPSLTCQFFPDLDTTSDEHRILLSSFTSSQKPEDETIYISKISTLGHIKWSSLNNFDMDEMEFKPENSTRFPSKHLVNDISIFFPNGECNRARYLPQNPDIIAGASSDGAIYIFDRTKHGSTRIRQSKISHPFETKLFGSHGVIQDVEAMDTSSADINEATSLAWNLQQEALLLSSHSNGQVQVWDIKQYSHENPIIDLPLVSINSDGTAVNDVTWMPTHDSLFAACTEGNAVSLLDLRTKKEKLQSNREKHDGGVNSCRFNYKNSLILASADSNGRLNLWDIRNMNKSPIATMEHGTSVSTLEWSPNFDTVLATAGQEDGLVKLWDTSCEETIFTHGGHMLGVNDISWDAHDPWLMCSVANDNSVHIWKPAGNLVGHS
UniProt P23594: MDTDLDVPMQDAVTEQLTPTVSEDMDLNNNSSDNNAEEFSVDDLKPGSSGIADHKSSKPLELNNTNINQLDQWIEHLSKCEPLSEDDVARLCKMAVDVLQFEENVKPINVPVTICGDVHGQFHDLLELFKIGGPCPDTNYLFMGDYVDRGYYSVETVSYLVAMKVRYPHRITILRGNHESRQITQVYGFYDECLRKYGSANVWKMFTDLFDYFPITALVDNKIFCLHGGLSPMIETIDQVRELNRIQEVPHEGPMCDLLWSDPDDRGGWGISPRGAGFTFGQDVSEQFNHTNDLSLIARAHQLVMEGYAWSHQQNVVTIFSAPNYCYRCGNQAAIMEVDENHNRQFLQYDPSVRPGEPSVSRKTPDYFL
UniProt P23595: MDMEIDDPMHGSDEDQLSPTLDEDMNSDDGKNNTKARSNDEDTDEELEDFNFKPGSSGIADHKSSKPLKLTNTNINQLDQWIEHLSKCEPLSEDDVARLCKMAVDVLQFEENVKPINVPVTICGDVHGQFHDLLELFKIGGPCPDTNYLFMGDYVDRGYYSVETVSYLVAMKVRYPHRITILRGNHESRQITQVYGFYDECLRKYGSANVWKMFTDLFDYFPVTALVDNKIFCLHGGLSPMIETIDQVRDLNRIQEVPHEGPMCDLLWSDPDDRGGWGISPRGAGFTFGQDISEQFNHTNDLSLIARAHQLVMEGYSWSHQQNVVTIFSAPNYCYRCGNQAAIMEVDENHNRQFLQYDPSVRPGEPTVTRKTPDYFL

Legend:
[1] = target: Dsk2 (Saccharomyces cerevisiae) (UniProt P48510); assay: anti-FLAG co-IP, LC-MS/MS
[2] = target: T1, Rad23 (Saccharomyces cerevisiae) (UniProt P32628); assay: anti-FLAG co-IP, LC-MS/MS
T1 sequence (looked up): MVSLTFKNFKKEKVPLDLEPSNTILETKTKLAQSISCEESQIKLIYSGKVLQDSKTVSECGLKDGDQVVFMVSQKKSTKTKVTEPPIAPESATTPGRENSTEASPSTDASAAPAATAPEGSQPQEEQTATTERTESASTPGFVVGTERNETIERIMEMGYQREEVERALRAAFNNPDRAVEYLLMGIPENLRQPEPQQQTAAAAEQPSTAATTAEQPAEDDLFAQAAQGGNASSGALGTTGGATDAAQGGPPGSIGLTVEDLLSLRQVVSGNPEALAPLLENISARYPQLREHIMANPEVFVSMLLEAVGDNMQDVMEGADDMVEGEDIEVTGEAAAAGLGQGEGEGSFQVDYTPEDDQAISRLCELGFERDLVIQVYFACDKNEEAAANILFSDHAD

[3] = target: Msi1 (Saccharomyces cerevisiae) (UniProt P13712); assay: anti-FLAG co-IP, LC-MS/MS
[4] = target: T2, Elc1 (Saccharomyces cerevisiae) (UniProt Q03071); assay: anti-FLAG co-IP, LC-MS/MS
T2 sequence (looked up): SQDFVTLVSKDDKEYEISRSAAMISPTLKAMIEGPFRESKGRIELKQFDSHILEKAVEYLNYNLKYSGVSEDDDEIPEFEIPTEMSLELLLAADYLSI

[5] = target: Pph21 (Saccharomyces cerevisiae) (UniProt P23594); assay: anti-FLAG co-IP, LC-MS/MS
[6] = target: Pph22 (Saccharomyces cerevisiae) (UniProt P23595); assay: anti-FLAG co-IP, LC-MS/MS
[7] = target: T3, Rfc4 (Saccharomyces cerevisiae) (UniProt P40339); assay: anti-FLAG co-IP, LC-MS/MS
T3 sequence (looked up): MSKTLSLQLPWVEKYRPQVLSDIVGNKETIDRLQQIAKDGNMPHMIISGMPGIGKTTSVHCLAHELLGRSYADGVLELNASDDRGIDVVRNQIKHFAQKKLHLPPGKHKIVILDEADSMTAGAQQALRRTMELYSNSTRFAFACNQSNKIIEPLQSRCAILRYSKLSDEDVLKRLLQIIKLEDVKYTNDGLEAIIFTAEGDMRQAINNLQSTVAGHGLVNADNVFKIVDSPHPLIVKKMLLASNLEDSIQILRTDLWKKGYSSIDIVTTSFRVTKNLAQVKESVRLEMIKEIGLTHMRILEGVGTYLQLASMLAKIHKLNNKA

[8] = target: T4, Rfc3 (Saccharomyces cerevisiae) (UniProt P38629); assay: anti-FLAG co-IP, LC-MS/MS
T4 sequence (looked up): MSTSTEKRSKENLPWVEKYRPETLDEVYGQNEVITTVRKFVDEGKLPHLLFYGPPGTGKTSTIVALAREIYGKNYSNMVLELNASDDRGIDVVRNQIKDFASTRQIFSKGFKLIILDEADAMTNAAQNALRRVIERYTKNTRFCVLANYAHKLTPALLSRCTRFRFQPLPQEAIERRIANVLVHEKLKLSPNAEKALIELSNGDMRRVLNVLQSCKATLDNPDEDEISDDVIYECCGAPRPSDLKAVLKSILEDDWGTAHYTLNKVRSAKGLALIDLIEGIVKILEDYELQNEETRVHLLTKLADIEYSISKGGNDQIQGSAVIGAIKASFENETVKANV

[9] = target: T3, Rfc4 (Saccharomyces cerevisiae); assay: anti-FLAG co-IP, LC-MS/MS; pair by Table 2
[10] = target: T4, Rfc3 (Saccharomyces cerevisiae); assay: anti-FLAG co-IP, LC-MS/MS; pair by Table 2
[11] = target: T5, Rfc5 (Saccharomyces cerevisiae) (UniProt P38251); assay: anti-FLAG co-IP, LC-MS/MS
T5 sequence (looked up): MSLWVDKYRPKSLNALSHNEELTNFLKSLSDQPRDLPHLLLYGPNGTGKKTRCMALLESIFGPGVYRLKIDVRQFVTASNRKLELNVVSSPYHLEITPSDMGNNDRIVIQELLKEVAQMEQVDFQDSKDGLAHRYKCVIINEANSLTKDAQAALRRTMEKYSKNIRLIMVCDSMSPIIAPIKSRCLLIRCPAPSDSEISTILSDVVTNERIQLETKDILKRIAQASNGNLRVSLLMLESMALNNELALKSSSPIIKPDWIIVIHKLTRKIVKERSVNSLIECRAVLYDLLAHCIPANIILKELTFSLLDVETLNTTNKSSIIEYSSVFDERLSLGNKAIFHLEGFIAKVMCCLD

[12] = target: T5, Rfc5 (Saccharomyces cerevisiae); assay: anti-FLAG co-IP, LC-MS/MS; pair by Table 2

B1: Ufd2 (protein, Saccharomyces cerevisiae, UniProt P54860 1-961, looked up)
chain: MTAIEDILQITTDPSDTRGYSLLKSEEVPQGSTLGVDFIDTLLLYQLTENEKLDKPFEYLNDCFRRNQQQKRITKNKPNAESLHSTFQEIDRLVIGYGVVALQIENFCMNGAFINYITGIVSNVNSYTDFLSQIIQRAILEGTALDLLNAVFPTLLEYCNKHVSHFDLNESVIYNNVLTIFELFVTFKPIAEIFTKIDGFFADYSCKPQDFERKTILGPILSLSPIEAAVAIRNYGDNLLRSKQQTAMIHESLQAEHKVVIDRLFFIVDKLVRGSLNSRTDMISYFAHIANKNHLRRADHPPFKELSSNGFMSNITLLLVRFSQPFLDISYKKIDKIDANYFNNPSLFIDLSGETRLNSDFKEADAFYDKNRKTADSKPNFISDCFFLTLTYLHYGLGGTLSFEEKMGSEIKALKEEIEKVKKIAANHDVFARFITAQLSKMEKALKTTESLRFALQGFFAHRSLQLEVFDFICGASTFLIRVVDPEHEFPFKQIKLPLIPDQIGVENVDNADFLRAHAPVPFKYYPEFVVEGPVNYSLYISKYQTSPIFRNPRLGSFVEFTTMVLRCPELVSNPHLKGKLVQLLSVGAMPLTDNSPGFMMDIFEHDELVNKNLLYALLDFYVIVEKTGSSSQFYDKFNSRYSISIILEELYYKIPSYKNQLIWQSQNNADFFVRFVARMLNDLTFLLDEGLSNLAEVHNIQNELDNRARGAPPTREEEDKELQTRLASASRQAKSSCGLADKSMKLFEIYSKDIPAAFVTPEIVYRLASMLNYNLESLVGPKCGELKVKDPQSYSFNPKDLLKALTTVYINLSEQSEFISAVAKDERSFNRNLFVRAVDILGRKTGLASPEFIEKLLNFANKAEEQRKADEEEDLEYGDVPDEFLDPLMYTIMKDPVILPASKMNIDRSTIKAHLLSDSTDPFNRMPLKLEDVTPNEELRQKILCFKKQKKEEAKHKASE
binding [1]: binds | binding [2]: binds

B2: Rad1 (protein, Saccharomyces cerevisiae, UniProt P06777 1-1100, looked up)
chain: MSQLFYQGDSDDELQEELTRQTTQASQSSKIKNEDEPDDSNHLNEVENEDSKVLDDDAVLYPLIPNEPDDIETSKPNINDIRPVDIQLTLPLPFQQKVVENSLITEDALIIMGKGLGLLDIVANLLHVLATPTSINGQLKRALVLVLNAKPIDNVRIKEALEELSWFSNTGKDDDDTAVESDDELFERPFNVVTADSLSIEKRRKLYISGGILSITSRILIVDLLSGIVHPNRVTGMLVLNADSLRHNSNESFILEIYRSKNTWGFIKAFSEAPETFVMEFSPLRTKMKELRLKNVLLWPRFRVEVSSCLNATNKTSHNKVIEVKVSLTNSMSQIQFGLMECLKKCIAELSRKNPELALDWWNMENVLDINFIRSIDSVMVPNWHRISYESKQLVKDIRFLRHLLKMLVTSDAVDFFGEIQLSLDANKPSVSRKYSESPWLLVDEAQLVISYAKKRIFYKNEYTLEENPKWEQLIHILHDISHERMTNHLQGPTLVACSDNLTCLELAKVLNASNKKRGVRQVLLNKLKWYRKQREETKKLVKEVQSQDTFPENATLNVSSTFSKEQVTTKRRRTRGASQVAAVEKLRNAGTNVDMEVVFEDHKLSEEIKKGSGDDLDDGQEENAANDSKIFEIQEQENEILIDDGDAEFDNGELEYVGDLPQHITTHFNKDLWAEHCNEYEYVDRQDEILISTFKSLNDNCSLQEMMPSYIIMFEPDISFIRQIEVYKAIVKDLQPKVYFMYYGESIEEQSHLTAIKREKDAFTKLIRENANLSHHFETNEDLSHYKNLAERKLKLSKLRKSNTRNAGGQQGFHNLTQDVVIVDTREFNASLPGLLYRYGIRVIPCMLTVGDYVITPDICLERKSISDLIGSLQNNRLANQCKKMLKYYAYPTLLIEFDEGQSFSLEPFSERRNYKNKDISTVHPISSKLSQDEIQLKLAKLVLRFPTLKIIWSSSPLQTVNIILELKLGREQPDPSNAVILGTNKVRSDFNSTAKGLKDGDNESKFKRLLNVPGVSKIDYFNLRKKIKSFNKLQKLSWNEINELINDEDLTDRIYYFLRTEKEEQEQESTDENLESPGKTTDDNALHDHHNDVPEAPV
binding [3]: binds

B3: Rad7 (protein, Saccharomyces cerevisiae, UniProt P06779 1-565, looked up)
chain: MYRSRNRPKRGGENEVKGPNSALTQFLREEGISAENIKQKWYQRQSKKQEDATDEKKGKAEDDSFTAEISRVVEDEEIDEIGTGSGTETERAQVSYDARMKLVPADSDEEEYETSHISDTPVSLSSANDRESLTKKRQNTAKIIQNRRRKRKRAADLLDRRVNKVSSLQSLCITKISENISKWQKEADESSKLVFNKLRDVLGGVSTANLNNLAKALSKNRALNDHTLQLFLKTDLKRLTFSDCSKISFDGYKTLAIFSPHLTELSLQMCGQLNHESLLYIAEKLPNLKSLNLDGPFLINEDTWEKFFVIMKGRLEEFHISNTHRFTDKSLSNLLINCGSTLVSLGLSRLDSISNYALLPQYLVNDEFHSLCIEYPFNEEDVNDEIIINLLGQIGRTLRKLVLNGCIDLTDSMIINGLTAFIPEKCPLEVLSLEESDQITTDSLSYFFSKVELNNLIECSFRRCLQLGDMAIIELLLNGARDSLRSLNLNSLKELTKEAFVALACPNLTYLDLGFVRCVDDSVIQMLGEQNPNLTVIDVFGDNLVTEKATMRPGLTLIGRQSDSI
binding [4]: binds

B4: Cdc55 (protein, Saccharomyces cerevisiae, UniProt Q00362 1-526, looked up)
chain: MAQNNFDFKFSQCFGDKADIVVTEADLITAVEFDYTGNYLATGDKGGRVVLFERSNSRHCEYKFLTEFQSHDAEFDYLKSLEIEEKINEIKWLRPTQRSHFLLSTNDKTIKLWKVYEKNIKLVSQNNLTEGVTFAKKGKPDNHNSRGGSVRAVLSLQSLKLPQLSQHDKIIAATPKRIYSNAHTYHINSISLNSDQETFLSADDLRINLWNLDIPDQSFNIVDIKPTNMEELTEVITSAEFHPQECNLFMYSSSKGTIKLCDMRQNSLCDNKTKTFEEYLDPINHNFFTEITSSISDIKFSPNGRYIASRDYLTVKIWDVNMDNKPLKTINIHEQLKERLSDTYENDAIFDKFEVNFSGDSSSVMTGSYNNNFMIYPNVVTSGDNDNGIVKTFDEHNAPNSNSNKNIHNSIQNKDSSSSGNSHKRRSNGRNTGMVGSSNSSRSSIAGGEGANSEDSGTEMNEIVLQADKTAFRNKRYGSLAQRSARNKDWGDDIDFKKNILHFSWHPRENSIAVAATNNLFIFSAL
binding [5]: binds | binding [6]: binds

B5: Rfc2 (protein, Saccharomyces cerevisiae, UniProt P40348 1-353, looked up)
chain: MFEGFGPNKKRKISKLAAEQSLAQQPWVEKYRPKNLDEVTAQDHAVTVLKKTLKSANLPHMLFYGPPGTGKTSTILALTKELYGPDLMKSRILELNASDERGISIVREKVKNFARLTVSKPSKHDLENYPCPPYKIIILDEADSMTADAQSALRRTMETYSGVTRFCLICNYVTRIIDPLASRCSKFRFKALDASNAIDRLRFISEQENVKCDDGVLERILDISAGDLRRGITLLQSASKGAQYLGDGKNITSTQVEELAGVVPHDILIEIVEKVKSGDFDEIKKYVNTFMKSGWSAASVVNQLHEYYITNDNFDTNFKNQISWLLFTTDSRLNNGTNEHIQLLNLLVKISQL
binding [7]: binds | binding [8]: binds | binding [9]: binds | binding [10]: binds

B6: Rfc3 (protein, Saccharomyces cerevisiae, UniProt P38629 1-340, looked up)
chain: T4 sequence (looked up)
binding [11]: binds | binding [7]: binds | binding [12]: binds | binding [9]: binds
